Screen size: about 580,000 compounds; about 6,100 (1.1%) were called active. The inconclusive results got no clear call from the source; some entries with a clear call stand among them for comparison. Calls come from the whole dose curve; as a rule, active = well fitted inhibition curve with a large enough effect; inconclusive = small, poorly fitted or top-dose-only effect, or another doubt; inactive = no such curve, though single readings can be large or run the other way. Where the call is inconclusive, the potency comes from a doubtful curve fit.
These molecules were tested against Polyunsaturated fatty acid lipoxygenase ALOX12 (Homo sapiens) (UniProt P18054) (assay: Primary qHTS assay for inhibitors of human arachidonate 12S-lipoxygenase (ALOX12): Round 2). Conditions: purified 12hLO, xylenol orange hydroperoxide absorbance; activity change, negative = inhibition: at 108 µM (top of the series) unless noted.
In short: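 Purified human 12hLO at 150 nM in 25 mM Hepes, 0.01% Triton X-100, pH 7.0, preincubated 15 min at room temperature with compound. Reaction started with 40 uM arachidonic acid, 30 min at room temperature. Hydroperoxide measured by Fe-xylenol orange, 573/405 nm absorbance ratio.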
% is set by controls: 0 for no effect and ±100 for the full control effect; potency is the fitted concentration of half-maximal effect.

The chains behind the UniProt entries cited, without tags or fusion partners. Where a name states a change or a piece, a line headed by the entry shows the natural chain unless it says otherwise.
UniProt P18054: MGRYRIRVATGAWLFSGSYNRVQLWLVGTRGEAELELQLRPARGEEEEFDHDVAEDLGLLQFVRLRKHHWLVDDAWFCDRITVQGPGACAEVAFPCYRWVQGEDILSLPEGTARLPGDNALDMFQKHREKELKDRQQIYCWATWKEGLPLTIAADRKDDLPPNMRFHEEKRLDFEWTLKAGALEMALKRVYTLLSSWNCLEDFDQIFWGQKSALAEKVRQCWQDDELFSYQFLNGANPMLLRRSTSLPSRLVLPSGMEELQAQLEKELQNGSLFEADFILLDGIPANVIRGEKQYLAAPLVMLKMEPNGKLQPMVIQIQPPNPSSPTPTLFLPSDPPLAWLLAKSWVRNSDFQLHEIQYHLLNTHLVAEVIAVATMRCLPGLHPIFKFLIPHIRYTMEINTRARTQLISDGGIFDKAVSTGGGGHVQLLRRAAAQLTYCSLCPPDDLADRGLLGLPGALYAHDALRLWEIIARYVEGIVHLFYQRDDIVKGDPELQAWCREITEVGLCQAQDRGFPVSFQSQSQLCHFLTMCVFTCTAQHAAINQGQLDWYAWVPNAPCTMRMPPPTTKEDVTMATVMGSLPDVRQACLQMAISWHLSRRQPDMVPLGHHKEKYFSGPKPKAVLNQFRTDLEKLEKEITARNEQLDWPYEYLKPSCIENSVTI

| Structure (SMILES) | Potency | activity change, negative = inhibition |
| --- | --- | --- |
| CC(=O)C(C(C)=O)c1c(Cl)c(O)c(O)c2c(C(=O)c3ccccc3)coc12 | inconclusive: 3.55 µM [inhibitor, full curve, poor fit] |  |
| Cc1ccc(C(=O)N/N=C/c2cccc(C)c2)cc1 |  | inactive: 7.83% |
| O=C(CCNC(=O)c1ccccc1Cl)Nc1nc2ccc(SC(F)F)cc2s1 | inconclusive: 44.7 µM [inhibitor, partial curve, poor fit] |  |
| C(=C\c1ccc2nncn2c1)/c1ccccc1 | inconclusive: 63.1 µM [inhibitor, partial curve, poor fit] |  |
| CCOc1ccc(C(=O)Nc2ccccc2C(=O)O)cc1 |  | inactive: -1.36% |
| COc1ccc(C2Nc3cccc4cccc(c34)N2)cc1 | inconclusive: 4.47 µM [inhibitor, full curve, poor fit] |  |
| COc1cc(C(=S)N2CCCC2)cc(Cl)c1OCC(=O)Nc1ccc(C)cc1C | inconclusive: 70.8 µM [inhibitor, partial curve, poor fit] |  |
| COC(=O)[C@]12CCCCC=C1N(Cc1ccccc1)C(=O)[C@H](CC(=O)NCc1ccc(OC)c(OC)c1)C2 |  | inactive: -3.01% |
| O=C(CCNc1cccc(C(F)(F)F)c1)c1ccco1 |  | inactive: -26.3% |
| Cc1ccc(-n2nccc2-c2nn(-c3cccc(C(F)(F)F)c3)c(=O)n(C)c2=O)cc1 | inconclusive: 35.5 µM [inhibitor, partial curve, poor fit] |  |
| CC(C(=O)Nc1ccc(F)cc1)N(C)Cc1ccc2c(c1)OCCO2 (stereo unspecified) |  | inactive: 8.36% |
| CCCCc1c(-c2ccc(F)cc2)ncn1CCc1ccccc1OC | inconclusive: 56.2 µM [inhibitor, partial curve, poor fit] |  |
| Cc1cccc(C)c1OCCNC(=O)Cc1n[nH]c(=O)c2ccccc12 | inconclusive: 141 µM [inhibitor, single point] |  |
| CC(C)C[C@@H]1N[C@H](C(=O)NCc2cccs2)Cc2c[nH]c3cccc1c23 | inconclusive: 39.8 µM [inhibitor, full curve, poor fit] |  |
| CC(C)(Oc1ccc(C2CC2(Cl)Cl)cc1)C(=O)O (stereo unspecified) | inconclusive: 14 µM [inhibitor, partial curve, poor fit] |  |
| CC1CN(C(C)C)C(=S)NC1=O (stereo unspecified) | inconclusive: 50.1 µM [inhibitor, partial curve, poor fit] |  |
| CCn1c2ccc(C)cc2c2n[nH]c(=S)nc21 | inconclusive: 35.5 µM [inhibitor, partial curve, poor fit] |  |
| COc1ccccc1-c1nnc(SCCN2CCOCC2)n1-c1ccc(C)cc1 | inconclusive: 2.51 µM [inhibitor, full curve, poor fit] |  |
| Cc1cc(C)c2c(CN3CCN(c4ccccc4F)CC3)cc(=O)oc2c1 | inconclusive: 25.1 µM [inhibitor, partial curve] |  |
| CC(C)Oc1ccc(CNC(=O)Cn2ccc3cc(S(=O)(=O)N4CCCC4)ccc32)cc1 |  | inactive: 12.2% |
| O=C(O)c1ccc(Cl)c(N2C(=O)Nc3ccccc3N2O)c1 |  | inactive: -9.64% |
| COc1ccc(C)cc1NC(=O)CNC(=O)NOCc1ccccc1 | inconclusive: 8.91 µM [inhibitor, full curve, poor fit] |  |

For convenience, some entries already given:

| Structure (SMILES) | Potency | activity change, negative = inhibition |
| --- | --- | --- |
| CC1CN(C(C)C)C(=S)NC1=O (stereo unspecified) | inconclusive: 50.1 µM [inhibitor, partial curve, poor fit] |  |
| CCn1c2ccc(C)cc2c2n[nH]c(=S)nc21 | inconclusive: 35.5 µM [inhibitor, partial curve, poor fit] |  |
| COc1ccccc1-c1nnc(SCCN2CCOCC2)n1-c1ccc(C)cc1 | inconclusive: 2.51 µM [inhibitor, full curve, poor fit] |  |
| Cc1cc(C)c2c(CN3CCN(c4ccccc4F)CC3)cc(=O)oc2c1 | inconclusive: 25.1 µM [inhibitor, partial curve] |  |
| CC(C)Oc1ccc(CNC(=O)Cn2ccc3cc(S(=O)(=O)N4CCCC4)ccc32)cc1 |  | inactive: 12.2% |

Following part

| Structure (SMILES) | Potency | activity change, negative = inhibition |
| --- | --- | --- |
| CC1CN(S(=O)(=O)c2cccc(C(=O)NCc3ccc4c(c3)OCO4)c2)CC(C)O1 (stereo unspecified) | inconclusive: 50.1 µM [inhibitor, partial curve, poor fit] |  |
| COc1ccc2c(c1)C(=O)/C(=C/c1ccc(Br)cc1)CC2 |  | inactive: -23.1% |
| c1ccc2c(-c3cnn4cc(-c5ccc(N6CCNCC6)cc5)cnc34)ccnc2c1 | inconclusive: 2.43 µM [inhibitor, full curve, poor fit] |  |
| O=C(NC(=S)Nc1ccc(N2CCOCC2)c(Cl)c1)C(c1ccccc1)c1ccccc1 | inconclusive: 20 µM [inhibitor, partial curve, poor fit] |  |
| CN(CC(=O)N1CCC(CCOc2ccccc2F)C1)S(=O)(=O)c1ccc2c(c1)oc(=O)n2C (stereo unspecified) | inconclusive: 70.8 µM [inhibitor, partial curve] |  |
| Cc1noc(/C=C/c2ccco2)c1S(=O)(=O)N1CCC(C(=O)Nc2ccc(F)c(Cl)c2)CC1 | inconclusive: 100 µM [inhibitor, partial curve, poor fit] |  |
| Cc1ccccc1Nc1cnc2ccc(-c3cccc(CO)c3)nn12 | inconclusive: 35.5 µM [inhibitor, partial curve] |  |
| COc1ccc(-n2ncc3c(NCCC4=CCCCC4)ncnc32)cc1 | active: 3.55 µM |  |
| CC(C)CCOC(=O)c1cc2cc(Br)ccc2oc1=O | inconclusive: 0.631 µM [inhibitor, full curve, poor fit] |  |
| COC(=O)COc1ccc2c(=O)c(-c3ccccc3)c(C)oc2c1 |  | inactive: -2.76% |
| Cc1cnc(C(=O)OC(C)C(=O)Nc2ccc(Oc3ccccc3)cc2)cn1 (stereo unspecified) |  | inactive: 53.5% |
| Cn1c(-c2cccc(Br)c2)c(-c2cn3ccccc3n2)c(=O)n(C)c1=O | inconclusive: 35.5 µM [inhibitor, partial curve, poor fit] |  |
| C/C(=N\NC(=O)c1ccc(OC2OCCOC2Oc2ccc(C(=O)N/N=C(\C)c3ccncc3)cc2)cc1)c1ccncc1 (stereo unspecified) |  | inactive: -3.53% |
| COC(=O)CCc1c(C)c(C(=O)c2ccco2)c2ccccn12 | inconclusive: 50.1 µM [inhibitor, partial curve, poor fit] |  |
| Cc1ccccc1-c1nc(CS(=O)(=O)CC(=O)NCc2cccc(Cl)c2)c(C)o1 | inconclusive: 50.1 µM [inhibitor, partial curve, poor fit] |  |
| CC(C)OC(=O)c1c(NC(=O)C2CC=CCC2C(=O)O)sc2c1CCCCC2 (stereo unspecified) | inconclusive: 0.631 µM [inhibitor, full curve, poor fit] |  |
| COc1ccc(N2CCN(C(=O)c3ccc4c(c3)CC(c3ccccc3)OC4=O)CC2)cc1 (stereo unspecified) |  | inactive: -26.9% |
| O=C(OC/C=C/c1ccccc1)c1cc2ccccc2[nH]1 | inconclusive: 0.0794 µM [inhibitor, full curve, poor fit] |  |
| COc1ccccc1C#Cc1cnc2c(c1)C(=O)N([C@H](C)CO)C[C@H](C)[C@@H](CN(C)S(=O)(=O)c1cn(C)cn1)O2 | inconclusive: 89.1 µM [inhibitor, single point] |  |
| COc1cccc(N2CCN(C(=O)c3cc(C)oc3C)CC2)c1 |  | inactive: -9.36% |
| CCCCN1CC(N2CCN(CCO)CC2)CS1(=O)=O (stereo unspecified) |  | inconclusive: -38.7% [inhibitor] |
| Cc1ccc(CN(C)C(=O)c2ccccc2NC(=O)c2ccccc2)o1 |  | inactive: 167% |

| Structure (SMILES) | Potency | activity change, negative = inhibition |
| --- | --- | --- |
| COc1cccc(C(=O)OCCNC(=O)c2cccnc2)c1 | inconclusive: 14.1 µM [inhibitor, partial curve, poor fit] |  |
| Cc1cc2c(N3CCCCC3C)ncnc2s1 (stereo unspecified) |  | inactive: 0% |
| O=C(NCc1ccco1)O[C@H]1CC[C@@]23CCCN2C(=O)CCC[C@H]3[C@H]1Cc1ccccc1 | inconclusive: 126 µM [inhibitor, single point] |  |
| CS(=O)(=O)Nc1cccc(-c2nccc(-n3ccnc3)n2)c1 | active: 22.4 µM |  |
| COc1ccc(C(=O)n2nc(-c3ccco3)nc2NCc2cccs2)cc1 | inconclusive: 100 µM [inhibitor, single point] |  |
| CC(C)(C)OC(=O)COc1ccc2c(=O)c(Oc3ccccc3Br)coc2c1 |  | inactive: 6.11% |
| N[C@@H](CSS(=O)(=O)O)C(=O)O | inconclusive: 1.26 µM [inhibitor, full curve, poor fit] |  |
| COCCN1CC(CO)C2(CCN(C3CCSCC3)CC2)C1 (stereo unspecified) |  | inactive: 159% |
| O=C(c1ccc([N+](=O)[O-])cc1)c1cc2ccc(O)cc2oc1=O | inconclusive: 141 µM [inhibitor, single point] |  |
| N#Cc1cccc(CN2CCN(c3oc(C4CC4)nc3C#N)CC2)c1 | inconclusive: 112 µM [inhibitor, single point] |  |
| CN1C(=O)C(c2ccccc2)CC12CCN(C(=O)CN1CCCC1)CC2 (stereo unspecified) | inconclusive: 112 µM [inhibitor, partial curve, poor fit] |  |
| CC(C)C(NC(=O)c1cccs1)c1nnc(SCC(=O)Nc2nccs2)n1C (stereo unspecified) | inconclusive: 50.1 µM [inhibitor, partial curve, poor fit] |  |
| CCOc1ccc(CCN2C(=O)C(=O)N([C@@H](Cc3ccccc3)CN3CCC[C@H]3CN3C(=O)C(=O)NC[C@@H]3Cc3ccc(O)cc3)C[C@@H]2CC(C)C)cc1 | inconclusive: 89.1 µM [inhibitor, partial curve, poor fit] |  |
| CN(C)c1ccc(N/C=C/C(=O)c2ccccc2)cc1 |  | inactive: -7.5% |
| Cc1ccc(-c2nnc(Nc3ccc(CC(N)=O)cc3)c3ccccc23)cc1S(N)(=O)=O | inconclusive: 56.2 µM [inhibitor, partial curve, poor fit] |  |
| CCOC(=O)Cn1c(S(=O)(=O)Cc2ccccc2)nc2ccccc21 | inconclusive: 31.6 µM [inhibitor, single point] |  |
| CCC(c1nnnn1C(C)(C)CC)N(CCCN1CCOCC1)Cc1cc2cccc(C)c2[nH]c1=O (stereo unspecified) |  | inactive: 11.6% |
| O=C(c1cccc(-n2cnnc2)c1)N(Cc1ccc2[nH]ccc2c1)C1CC1 |  | inactive: 10.2% |
| Cc1cccc(CN2CCN(Cc3cc(=O)oc4cc(C)ccc34)CC2)c1 | inconclusive: 25.1 µM [inhibitor, single point] |  |
| COc1cc(COC(=O)c2ccc(S(=O)(=O)N3CCOCC3)cc2)ccc1OC(F)F |  | inactive: -0.745% |
| COC(=O)c1ccccc1NC(=O)Cn1nnc2sc(-c3ccccc3)cc2c1=O | inconclusive: 56.2 µM [inhibitor, partial curve, poor fit] |  |
| C/C(=N\NS(=O)(=O)c1ccc(C)cc1)c1ccc(C)s1 | inconclusive: 35.5 µM [inhibitor, partial curve, poor fit] |  |

From PubChem BioAssay AID1671190 (National Center for Advancing Translational Sciences (NCATS), 2021)
